# Data reported in the supplement of paper PMC12067093, “Discovery and optimisation of a covalent ligand for TRIM25 and its application to targeted protein ubiquitination” (Chemical Science, 2025).
# Protein sequences, listed by entry. Tags and fused reporters are not part of them. Lines headed by an entry give the natural chain unless they say otherwise; changes in a name come on top.
# UniProt O43865, whole entry, looked up: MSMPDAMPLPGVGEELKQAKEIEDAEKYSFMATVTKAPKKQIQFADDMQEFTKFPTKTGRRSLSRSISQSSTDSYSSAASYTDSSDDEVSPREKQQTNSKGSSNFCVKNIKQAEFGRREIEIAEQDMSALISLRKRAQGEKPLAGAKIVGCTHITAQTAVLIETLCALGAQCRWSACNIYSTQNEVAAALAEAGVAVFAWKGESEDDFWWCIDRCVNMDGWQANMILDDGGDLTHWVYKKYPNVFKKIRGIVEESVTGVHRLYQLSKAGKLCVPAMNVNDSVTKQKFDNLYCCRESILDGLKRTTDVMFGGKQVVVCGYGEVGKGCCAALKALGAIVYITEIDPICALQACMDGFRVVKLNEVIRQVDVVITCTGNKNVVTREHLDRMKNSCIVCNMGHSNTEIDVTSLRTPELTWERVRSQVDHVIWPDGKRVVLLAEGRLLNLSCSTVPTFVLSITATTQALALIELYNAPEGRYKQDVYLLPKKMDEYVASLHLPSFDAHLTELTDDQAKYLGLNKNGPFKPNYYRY
# UniProt O00170: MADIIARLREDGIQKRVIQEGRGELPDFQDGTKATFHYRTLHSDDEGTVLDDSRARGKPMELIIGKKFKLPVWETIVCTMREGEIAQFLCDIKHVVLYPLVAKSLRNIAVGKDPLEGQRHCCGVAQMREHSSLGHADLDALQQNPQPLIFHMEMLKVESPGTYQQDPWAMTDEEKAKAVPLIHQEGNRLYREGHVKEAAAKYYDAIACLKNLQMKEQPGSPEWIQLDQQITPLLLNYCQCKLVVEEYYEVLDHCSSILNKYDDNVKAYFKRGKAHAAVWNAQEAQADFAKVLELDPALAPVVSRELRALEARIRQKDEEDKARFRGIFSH
# UniProt P23526: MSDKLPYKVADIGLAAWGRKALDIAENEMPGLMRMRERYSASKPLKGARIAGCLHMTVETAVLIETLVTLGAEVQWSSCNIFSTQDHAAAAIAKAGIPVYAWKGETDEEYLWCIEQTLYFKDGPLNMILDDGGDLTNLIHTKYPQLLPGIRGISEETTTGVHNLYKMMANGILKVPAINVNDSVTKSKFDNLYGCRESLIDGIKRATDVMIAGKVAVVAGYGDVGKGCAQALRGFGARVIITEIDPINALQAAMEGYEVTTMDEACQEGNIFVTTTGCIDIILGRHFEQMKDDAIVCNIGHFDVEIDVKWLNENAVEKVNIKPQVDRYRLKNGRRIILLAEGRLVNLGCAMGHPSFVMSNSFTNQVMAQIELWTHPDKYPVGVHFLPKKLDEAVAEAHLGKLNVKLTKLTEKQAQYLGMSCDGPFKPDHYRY
# UniProt P04075: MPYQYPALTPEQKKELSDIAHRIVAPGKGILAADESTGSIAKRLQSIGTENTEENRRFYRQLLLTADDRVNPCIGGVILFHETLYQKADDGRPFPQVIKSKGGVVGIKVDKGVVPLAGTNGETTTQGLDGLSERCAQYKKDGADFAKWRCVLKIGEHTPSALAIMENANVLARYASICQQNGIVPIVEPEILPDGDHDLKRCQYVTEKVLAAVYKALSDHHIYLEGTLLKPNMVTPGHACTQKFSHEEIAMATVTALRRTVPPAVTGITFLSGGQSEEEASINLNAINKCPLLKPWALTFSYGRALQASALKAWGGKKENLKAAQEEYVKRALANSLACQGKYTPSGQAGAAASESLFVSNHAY
# UniProt P54886: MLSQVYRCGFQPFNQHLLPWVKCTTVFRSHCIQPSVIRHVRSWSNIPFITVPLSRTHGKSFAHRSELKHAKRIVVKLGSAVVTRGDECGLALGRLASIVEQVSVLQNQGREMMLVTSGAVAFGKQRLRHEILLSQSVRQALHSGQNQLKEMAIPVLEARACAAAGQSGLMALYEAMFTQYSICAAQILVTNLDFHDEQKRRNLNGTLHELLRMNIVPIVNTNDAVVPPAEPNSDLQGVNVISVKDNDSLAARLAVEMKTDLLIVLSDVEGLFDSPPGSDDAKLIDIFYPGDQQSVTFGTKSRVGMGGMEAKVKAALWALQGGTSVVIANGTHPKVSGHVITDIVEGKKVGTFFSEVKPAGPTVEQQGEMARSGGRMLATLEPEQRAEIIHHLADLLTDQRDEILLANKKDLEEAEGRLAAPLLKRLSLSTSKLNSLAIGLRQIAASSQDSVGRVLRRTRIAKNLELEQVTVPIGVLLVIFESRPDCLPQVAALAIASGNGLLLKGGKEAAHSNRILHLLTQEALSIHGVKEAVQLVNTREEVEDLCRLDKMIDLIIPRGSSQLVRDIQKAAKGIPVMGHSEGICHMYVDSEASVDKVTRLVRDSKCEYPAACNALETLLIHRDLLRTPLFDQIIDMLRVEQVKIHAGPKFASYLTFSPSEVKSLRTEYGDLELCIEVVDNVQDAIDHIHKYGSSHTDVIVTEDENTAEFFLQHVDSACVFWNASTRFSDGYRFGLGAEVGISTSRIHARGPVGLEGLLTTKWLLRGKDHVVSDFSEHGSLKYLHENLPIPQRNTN
# UniProt Q99996, whole entry, looked up: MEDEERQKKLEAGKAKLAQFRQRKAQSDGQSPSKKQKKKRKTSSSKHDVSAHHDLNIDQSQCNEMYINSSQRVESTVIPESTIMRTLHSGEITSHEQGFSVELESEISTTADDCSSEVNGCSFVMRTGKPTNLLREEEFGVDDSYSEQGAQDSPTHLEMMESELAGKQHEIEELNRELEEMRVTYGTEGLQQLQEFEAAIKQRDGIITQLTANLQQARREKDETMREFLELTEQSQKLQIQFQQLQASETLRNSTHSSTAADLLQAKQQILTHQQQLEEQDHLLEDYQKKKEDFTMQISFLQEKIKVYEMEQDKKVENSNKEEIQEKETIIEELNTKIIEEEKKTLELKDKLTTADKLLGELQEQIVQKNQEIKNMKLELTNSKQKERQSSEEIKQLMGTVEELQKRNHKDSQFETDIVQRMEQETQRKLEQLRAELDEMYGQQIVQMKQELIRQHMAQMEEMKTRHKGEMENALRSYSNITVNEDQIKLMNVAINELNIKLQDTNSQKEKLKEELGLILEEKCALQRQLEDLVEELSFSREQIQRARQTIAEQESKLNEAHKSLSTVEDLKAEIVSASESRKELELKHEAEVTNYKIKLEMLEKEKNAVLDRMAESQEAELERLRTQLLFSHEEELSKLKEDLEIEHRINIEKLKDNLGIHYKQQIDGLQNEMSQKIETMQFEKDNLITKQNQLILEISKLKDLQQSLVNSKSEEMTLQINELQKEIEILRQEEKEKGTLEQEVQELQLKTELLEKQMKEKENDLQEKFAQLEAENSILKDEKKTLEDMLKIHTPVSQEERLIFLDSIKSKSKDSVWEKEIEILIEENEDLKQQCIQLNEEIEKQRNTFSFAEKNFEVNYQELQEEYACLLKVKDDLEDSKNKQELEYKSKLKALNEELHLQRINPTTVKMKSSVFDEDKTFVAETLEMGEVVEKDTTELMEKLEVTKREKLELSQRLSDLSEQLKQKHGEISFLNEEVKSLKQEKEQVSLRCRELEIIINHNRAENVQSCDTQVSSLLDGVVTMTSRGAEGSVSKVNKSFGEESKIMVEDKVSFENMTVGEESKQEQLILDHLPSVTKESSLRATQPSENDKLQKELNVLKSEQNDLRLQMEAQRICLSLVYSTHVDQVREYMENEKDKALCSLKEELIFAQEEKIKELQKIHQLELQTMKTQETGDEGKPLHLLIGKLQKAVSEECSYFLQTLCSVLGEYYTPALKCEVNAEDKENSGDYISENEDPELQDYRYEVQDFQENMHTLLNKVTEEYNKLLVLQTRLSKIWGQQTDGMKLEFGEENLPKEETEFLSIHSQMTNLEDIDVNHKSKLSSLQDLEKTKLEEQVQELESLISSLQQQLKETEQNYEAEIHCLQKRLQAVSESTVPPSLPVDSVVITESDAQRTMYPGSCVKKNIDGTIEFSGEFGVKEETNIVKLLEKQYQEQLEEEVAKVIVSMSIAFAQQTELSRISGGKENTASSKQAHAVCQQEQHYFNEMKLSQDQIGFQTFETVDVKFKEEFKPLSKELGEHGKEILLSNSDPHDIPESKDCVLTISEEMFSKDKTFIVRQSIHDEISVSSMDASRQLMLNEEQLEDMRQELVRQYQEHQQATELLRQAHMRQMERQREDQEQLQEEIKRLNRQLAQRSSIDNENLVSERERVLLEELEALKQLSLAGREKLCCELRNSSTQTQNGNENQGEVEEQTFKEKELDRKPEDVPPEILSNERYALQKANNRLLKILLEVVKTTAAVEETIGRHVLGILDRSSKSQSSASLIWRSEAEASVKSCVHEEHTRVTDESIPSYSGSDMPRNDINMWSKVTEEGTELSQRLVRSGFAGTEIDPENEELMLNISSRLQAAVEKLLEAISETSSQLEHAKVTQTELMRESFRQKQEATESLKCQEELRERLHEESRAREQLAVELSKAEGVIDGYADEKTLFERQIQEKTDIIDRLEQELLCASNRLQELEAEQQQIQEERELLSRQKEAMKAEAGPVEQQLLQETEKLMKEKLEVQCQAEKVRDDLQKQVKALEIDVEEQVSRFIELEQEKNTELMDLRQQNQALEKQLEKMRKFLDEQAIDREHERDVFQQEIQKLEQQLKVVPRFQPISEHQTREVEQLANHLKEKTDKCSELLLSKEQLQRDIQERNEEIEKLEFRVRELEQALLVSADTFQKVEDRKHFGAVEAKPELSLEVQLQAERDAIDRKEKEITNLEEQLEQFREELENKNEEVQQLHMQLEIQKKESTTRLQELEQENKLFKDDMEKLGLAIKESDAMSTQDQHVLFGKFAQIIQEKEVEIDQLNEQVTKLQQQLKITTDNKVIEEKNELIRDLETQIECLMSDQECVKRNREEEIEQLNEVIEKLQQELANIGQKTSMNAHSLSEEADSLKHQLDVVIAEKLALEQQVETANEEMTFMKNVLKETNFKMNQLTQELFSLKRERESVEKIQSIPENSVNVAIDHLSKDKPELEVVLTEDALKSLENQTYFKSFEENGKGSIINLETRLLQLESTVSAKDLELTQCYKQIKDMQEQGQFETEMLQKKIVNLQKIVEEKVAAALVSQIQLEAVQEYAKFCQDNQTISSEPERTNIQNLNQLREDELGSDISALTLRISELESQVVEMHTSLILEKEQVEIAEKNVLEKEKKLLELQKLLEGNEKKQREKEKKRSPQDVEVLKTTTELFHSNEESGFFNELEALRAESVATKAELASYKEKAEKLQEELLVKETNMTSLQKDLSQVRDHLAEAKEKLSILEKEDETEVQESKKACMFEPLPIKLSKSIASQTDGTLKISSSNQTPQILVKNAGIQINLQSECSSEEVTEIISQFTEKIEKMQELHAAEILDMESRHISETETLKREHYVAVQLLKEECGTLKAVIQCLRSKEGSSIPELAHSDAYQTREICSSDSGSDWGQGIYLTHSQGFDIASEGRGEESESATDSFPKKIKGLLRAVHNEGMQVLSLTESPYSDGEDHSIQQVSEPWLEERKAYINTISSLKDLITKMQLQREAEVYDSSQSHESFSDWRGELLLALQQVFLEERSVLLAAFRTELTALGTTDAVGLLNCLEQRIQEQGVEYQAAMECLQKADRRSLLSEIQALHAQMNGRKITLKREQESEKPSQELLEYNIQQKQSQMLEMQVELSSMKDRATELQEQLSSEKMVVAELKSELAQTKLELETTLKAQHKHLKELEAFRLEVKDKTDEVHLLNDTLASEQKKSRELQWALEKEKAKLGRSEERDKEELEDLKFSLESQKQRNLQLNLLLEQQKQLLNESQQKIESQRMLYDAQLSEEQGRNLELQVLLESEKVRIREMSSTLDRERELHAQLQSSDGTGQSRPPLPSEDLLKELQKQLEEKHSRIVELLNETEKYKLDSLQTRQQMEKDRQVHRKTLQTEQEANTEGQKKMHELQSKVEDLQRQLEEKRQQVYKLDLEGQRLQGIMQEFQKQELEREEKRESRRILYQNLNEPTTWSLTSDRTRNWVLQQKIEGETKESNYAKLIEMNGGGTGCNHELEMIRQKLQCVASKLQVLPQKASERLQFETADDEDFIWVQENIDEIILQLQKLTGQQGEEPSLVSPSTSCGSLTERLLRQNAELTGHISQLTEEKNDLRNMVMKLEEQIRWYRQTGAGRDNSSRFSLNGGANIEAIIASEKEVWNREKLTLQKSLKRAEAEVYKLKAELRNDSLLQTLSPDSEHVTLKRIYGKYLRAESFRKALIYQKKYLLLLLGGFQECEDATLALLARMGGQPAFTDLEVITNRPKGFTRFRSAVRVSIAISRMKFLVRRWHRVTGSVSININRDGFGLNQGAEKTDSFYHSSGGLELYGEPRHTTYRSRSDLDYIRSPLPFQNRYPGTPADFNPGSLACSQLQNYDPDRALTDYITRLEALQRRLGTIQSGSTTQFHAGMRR
# UniProt Q9NVV5: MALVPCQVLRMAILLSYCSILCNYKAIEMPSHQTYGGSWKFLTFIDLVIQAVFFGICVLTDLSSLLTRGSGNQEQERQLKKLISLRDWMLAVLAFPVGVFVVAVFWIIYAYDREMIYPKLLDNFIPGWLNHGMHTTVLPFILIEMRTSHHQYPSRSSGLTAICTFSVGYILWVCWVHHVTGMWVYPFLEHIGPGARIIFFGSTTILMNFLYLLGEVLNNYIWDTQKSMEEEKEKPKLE
# The other results are listed elsewhere or left out.
# Compound: Cc1cc(ccc1-c1ccccc1)C(=O)N1CCCN(CC1)C(=O)CCl [compound 10]
# Experiment: probe-labelled cysteine peptide fold change vs DMSO (competition) (log2 fold change); higher = less target engagement (more negative = stronger competition)
# Conditions: THP-1, incubation time: 4 h
# 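Further: competitive profiling in live THP-1 cells: cysteine peptides tagged with an iodoacetamide desthiobiotin (IA-DTB) probe, intensity after compound treatment relative to DMSO-treated cells.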
Target,probe-labelled cysteine peptide fold change (10 µM),probe-labelled cysteine peptide fold change (50 µM)
ANAPC4_Q9UJX5_732_VSCVLSSNLR (UniProt Q9UJX5),0.202,0.0475
ANKHD1_Q8IWZ3-6_2579_VPAGVQELTHCPDTPLLPPSDSR (UniProt Q8IWZ3),-0.109,0.0474
AKR1B1_P15121_45_HIDCAHVYQNENEVGVAIQEK (UniProt P15121),0.0652,-0.0317
AMACR_Q9UHK6_284+293_AEWCQIFDGTDACVTPVLTFEEVVHHDHNK (UniProt Q9UHK6),0.00265,-0.16
AIFM1_O95831_317_SITIIGGGFLGSELACALGR (UniProt O95831),-0.00971,0.0912
AHCYL1_O43865_272_LCVPAMNVNDSVTK (UniProt O43865),0.0131,-0.135
ANAPC1_Q9H1A4_988_QACEGNLPK (UniProt Q9H1A4),-0.212,-0.324
AIP_O00170_122_HCCGVAQMR (UniProt O00170),-0.267,-2.09
AKAP2_Q9Y2D5_296_RAQQEQLLLQKQLQQQQQQPPSQLCTAPASSHER (UniProt Q9Y2D5),-0.361,-0.44
AIDA_Q96BJ3_69_IATCLELR (UniProt Q96BJ3),-0.123,-0.606
AGPAT2_O15120_92_PCVIVSNHQSILDMMGLMEVLPER (UniProt O15120),0.571,0.436
ALDH9A1_P49189_355_VLCGGDIYVPEDPK (UniProt P49189),-0.105,0.0431
AHCY_P23526_421_QAQYLGMSCDGPFKPDHYR (UniProt P23526),-0.0527,-0.129
ALDOA_P04075_240_PNMVTPGHACTQK (UniProt P04075),-0.0357,0.19
ALDH18A1_P54886_674_SLRTEYGDLELCIEVVDNVQDAIDHIHK (UniProt P54886),0.115,-0.188
ALDH18A1_P54886_606_CEYPAACNALETLLIHR (UniProt P54886),0.125,-0.514
ANKHD1_Q8IWZ3_213_SLAEACSDGDVNAVR (UniProt Q8IWZ3),0.295,0.212
AMN1_Q8IY45_230_ILLFHGCPLITDHSR (UniProt Q8IY45),0.224,-0.121
AKAP9_Q99996_2333+2340_DLETQIECLMSDQECVK (UniProt Q99996),-0.0118,0.338

Target,probe-labelled cysteine peptide fold change (10 µM),probe-labelled cysteine peptide fold change (50 µM)
ANAPC2_Q9UJX6_557_FGEAPMHFCEVMLK (UniProt Q9UJX6),-0.0427,0.0673
AIP_O00170_121+122_HCCGVAQMR (UniProt O00170),-0.298,-1.16
ALDH1L2_Q3SY69_683_SCAVSNLK (UniProt Q3SY69),-0.217,-0.687
ALKBH5_Q6P6C2_100_LFSQDECAK (UniProt Q6P6C2),-0.000108,0.012
ALOX5_P09917_249_CTELPEK (UniProt P09917),-0.0203,0.0505
AKAP1_Q92667_655_IYISTLPYTQSVQICHIEGSQHHVDK (UniProt Q92667),0.168,0.539
ALG2_Q9H553_59_IWTAHYDPGHCFAESR (UniProt Q9H553),-0.0245,-0.205
AKR1B1_P15121_200_LIQYCQSK (UniProt P15121),-0.102,-0.0584
AMACR_Q9UHK6_117_LSGFGQSGSFCR (UniProt Q9UHK6),-0.119,-0.0622
ALDH6A1_Q02252_249_LLQDSGAPDGTLNIIHGQHEAVNFICDHPDIK (UniProt Q02252),0.0524,-0.0688
AKAP13_Q12802_2101_FCGQHNQSVNYFK (UniProt Q12802),-0.0819,-0.0492
AHCY_P23526_297_DDAIVCNIGHFDVEIDVK (UniProt P23526),0.172,0.564
AKAP9_Q99996_2877_AVIQCLR (UniProt Q99996),-0.293,-0.497
AIG1_Q9NVV5_6_MALVPCQVLR (UniProt Q9NVV5),-0.836,-1.35
AK2_P54819_42_LAENFCVCHLATGDMLR (UniProt P54819),0.0799,0.141
AHRR_A9YTQ3_650_GEQSCTCR (UniProt A9YTQ3),-0.131,
ALCAM_Q13740_270_CLGNGNPPPEEFLFYLPGQPEGIR (UniProt Q13740),-0.0239,0.0758
AKAP9_Q99996_1954_TDIIDRLEQELLCASNR (UniProt Q99996),-0.0778,-0.162
AHCYL1_O43865_151_IVGCTHITAQTAVLIETLCALGAQCR (UniProt O43865),0.204,0.206
